Measured values published in paper PMC6155280.
No constants are given. Whether binding was seen depends on the method and setting. Binding seen in cells or lysates may run through a third protein. Some binding calls cover weakened binding; strength is not graded here.

Target: T1, Phosphoglycerate mutase/protein family member 5 (PGAM5) (human (endogenous in 7402 and HepG2)) (UniProt Q96HS1)
T1 sequence: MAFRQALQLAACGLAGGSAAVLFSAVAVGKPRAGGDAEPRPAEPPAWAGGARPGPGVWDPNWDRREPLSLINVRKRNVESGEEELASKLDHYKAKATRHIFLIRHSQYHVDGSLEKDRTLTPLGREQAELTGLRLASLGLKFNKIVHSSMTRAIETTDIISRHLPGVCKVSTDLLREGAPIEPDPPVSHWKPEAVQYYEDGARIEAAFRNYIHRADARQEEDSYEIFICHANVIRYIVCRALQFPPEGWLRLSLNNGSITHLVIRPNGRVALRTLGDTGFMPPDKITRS
Test: co-IP; anti-PGAM5 antibody on whole cell lysates of 7402 and HepG2 cells; lysis buffer 20 mM Tris pH 7.5, 150 mM NaCl, 1 mM EDTA, 1 mM EGTA, 1% Triton X-100; protein A/G agarose; blot with anti-Bcl-xL

How did the binding turn out when Bcl-xL (from UniProt Q07817-1 1-233) was run?
The binding was “binds”.
